In the supplement of paper PMC7666118:
Some of the results follow.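 How the source made its calls: active = dose-dependent thermal stabilisation significant by F-test of dose-response against flat model at 10% FDR; inactive = not significant.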

The chains behind the UniProt entries cited, without tags or fusion partners. Where a name states a change or a piece, a line headed by the entry shows the natural chain unless it says otherwise.
UniProt Q02086: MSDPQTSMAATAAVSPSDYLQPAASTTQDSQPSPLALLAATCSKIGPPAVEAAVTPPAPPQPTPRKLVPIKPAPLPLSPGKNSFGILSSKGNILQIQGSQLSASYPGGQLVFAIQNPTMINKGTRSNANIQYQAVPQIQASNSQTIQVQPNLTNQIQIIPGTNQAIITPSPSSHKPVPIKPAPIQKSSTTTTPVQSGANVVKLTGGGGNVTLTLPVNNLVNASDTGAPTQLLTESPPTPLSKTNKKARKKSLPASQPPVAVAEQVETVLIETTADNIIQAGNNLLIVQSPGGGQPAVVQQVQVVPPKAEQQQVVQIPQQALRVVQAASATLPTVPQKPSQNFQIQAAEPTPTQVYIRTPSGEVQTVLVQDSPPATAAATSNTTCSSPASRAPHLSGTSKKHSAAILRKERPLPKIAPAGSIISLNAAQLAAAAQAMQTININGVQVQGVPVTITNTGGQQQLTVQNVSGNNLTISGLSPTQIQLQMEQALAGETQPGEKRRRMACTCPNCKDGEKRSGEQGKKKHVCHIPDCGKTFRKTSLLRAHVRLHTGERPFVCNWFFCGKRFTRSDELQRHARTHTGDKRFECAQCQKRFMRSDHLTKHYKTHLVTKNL
UniProt Q9NYJ8: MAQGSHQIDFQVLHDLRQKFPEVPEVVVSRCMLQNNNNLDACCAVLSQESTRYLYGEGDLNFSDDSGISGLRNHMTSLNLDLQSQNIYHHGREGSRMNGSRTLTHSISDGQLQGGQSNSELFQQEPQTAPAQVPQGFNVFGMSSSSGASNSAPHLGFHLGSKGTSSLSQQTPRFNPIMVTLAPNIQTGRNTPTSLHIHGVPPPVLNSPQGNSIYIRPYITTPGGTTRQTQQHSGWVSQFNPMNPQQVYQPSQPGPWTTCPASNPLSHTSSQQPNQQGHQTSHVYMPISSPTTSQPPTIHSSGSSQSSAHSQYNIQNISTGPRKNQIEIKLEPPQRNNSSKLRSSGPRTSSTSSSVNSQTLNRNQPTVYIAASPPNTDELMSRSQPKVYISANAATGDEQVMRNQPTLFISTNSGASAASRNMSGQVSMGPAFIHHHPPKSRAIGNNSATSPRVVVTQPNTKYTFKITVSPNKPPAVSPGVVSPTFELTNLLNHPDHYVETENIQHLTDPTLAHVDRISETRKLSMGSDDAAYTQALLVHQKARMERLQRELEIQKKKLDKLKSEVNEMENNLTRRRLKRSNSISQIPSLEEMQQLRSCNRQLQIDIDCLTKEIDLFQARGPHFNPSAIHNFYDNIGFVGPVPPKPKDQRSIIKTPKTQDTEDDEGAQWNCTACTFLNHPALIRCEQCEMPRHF
UniProt Q96T58, whole entry: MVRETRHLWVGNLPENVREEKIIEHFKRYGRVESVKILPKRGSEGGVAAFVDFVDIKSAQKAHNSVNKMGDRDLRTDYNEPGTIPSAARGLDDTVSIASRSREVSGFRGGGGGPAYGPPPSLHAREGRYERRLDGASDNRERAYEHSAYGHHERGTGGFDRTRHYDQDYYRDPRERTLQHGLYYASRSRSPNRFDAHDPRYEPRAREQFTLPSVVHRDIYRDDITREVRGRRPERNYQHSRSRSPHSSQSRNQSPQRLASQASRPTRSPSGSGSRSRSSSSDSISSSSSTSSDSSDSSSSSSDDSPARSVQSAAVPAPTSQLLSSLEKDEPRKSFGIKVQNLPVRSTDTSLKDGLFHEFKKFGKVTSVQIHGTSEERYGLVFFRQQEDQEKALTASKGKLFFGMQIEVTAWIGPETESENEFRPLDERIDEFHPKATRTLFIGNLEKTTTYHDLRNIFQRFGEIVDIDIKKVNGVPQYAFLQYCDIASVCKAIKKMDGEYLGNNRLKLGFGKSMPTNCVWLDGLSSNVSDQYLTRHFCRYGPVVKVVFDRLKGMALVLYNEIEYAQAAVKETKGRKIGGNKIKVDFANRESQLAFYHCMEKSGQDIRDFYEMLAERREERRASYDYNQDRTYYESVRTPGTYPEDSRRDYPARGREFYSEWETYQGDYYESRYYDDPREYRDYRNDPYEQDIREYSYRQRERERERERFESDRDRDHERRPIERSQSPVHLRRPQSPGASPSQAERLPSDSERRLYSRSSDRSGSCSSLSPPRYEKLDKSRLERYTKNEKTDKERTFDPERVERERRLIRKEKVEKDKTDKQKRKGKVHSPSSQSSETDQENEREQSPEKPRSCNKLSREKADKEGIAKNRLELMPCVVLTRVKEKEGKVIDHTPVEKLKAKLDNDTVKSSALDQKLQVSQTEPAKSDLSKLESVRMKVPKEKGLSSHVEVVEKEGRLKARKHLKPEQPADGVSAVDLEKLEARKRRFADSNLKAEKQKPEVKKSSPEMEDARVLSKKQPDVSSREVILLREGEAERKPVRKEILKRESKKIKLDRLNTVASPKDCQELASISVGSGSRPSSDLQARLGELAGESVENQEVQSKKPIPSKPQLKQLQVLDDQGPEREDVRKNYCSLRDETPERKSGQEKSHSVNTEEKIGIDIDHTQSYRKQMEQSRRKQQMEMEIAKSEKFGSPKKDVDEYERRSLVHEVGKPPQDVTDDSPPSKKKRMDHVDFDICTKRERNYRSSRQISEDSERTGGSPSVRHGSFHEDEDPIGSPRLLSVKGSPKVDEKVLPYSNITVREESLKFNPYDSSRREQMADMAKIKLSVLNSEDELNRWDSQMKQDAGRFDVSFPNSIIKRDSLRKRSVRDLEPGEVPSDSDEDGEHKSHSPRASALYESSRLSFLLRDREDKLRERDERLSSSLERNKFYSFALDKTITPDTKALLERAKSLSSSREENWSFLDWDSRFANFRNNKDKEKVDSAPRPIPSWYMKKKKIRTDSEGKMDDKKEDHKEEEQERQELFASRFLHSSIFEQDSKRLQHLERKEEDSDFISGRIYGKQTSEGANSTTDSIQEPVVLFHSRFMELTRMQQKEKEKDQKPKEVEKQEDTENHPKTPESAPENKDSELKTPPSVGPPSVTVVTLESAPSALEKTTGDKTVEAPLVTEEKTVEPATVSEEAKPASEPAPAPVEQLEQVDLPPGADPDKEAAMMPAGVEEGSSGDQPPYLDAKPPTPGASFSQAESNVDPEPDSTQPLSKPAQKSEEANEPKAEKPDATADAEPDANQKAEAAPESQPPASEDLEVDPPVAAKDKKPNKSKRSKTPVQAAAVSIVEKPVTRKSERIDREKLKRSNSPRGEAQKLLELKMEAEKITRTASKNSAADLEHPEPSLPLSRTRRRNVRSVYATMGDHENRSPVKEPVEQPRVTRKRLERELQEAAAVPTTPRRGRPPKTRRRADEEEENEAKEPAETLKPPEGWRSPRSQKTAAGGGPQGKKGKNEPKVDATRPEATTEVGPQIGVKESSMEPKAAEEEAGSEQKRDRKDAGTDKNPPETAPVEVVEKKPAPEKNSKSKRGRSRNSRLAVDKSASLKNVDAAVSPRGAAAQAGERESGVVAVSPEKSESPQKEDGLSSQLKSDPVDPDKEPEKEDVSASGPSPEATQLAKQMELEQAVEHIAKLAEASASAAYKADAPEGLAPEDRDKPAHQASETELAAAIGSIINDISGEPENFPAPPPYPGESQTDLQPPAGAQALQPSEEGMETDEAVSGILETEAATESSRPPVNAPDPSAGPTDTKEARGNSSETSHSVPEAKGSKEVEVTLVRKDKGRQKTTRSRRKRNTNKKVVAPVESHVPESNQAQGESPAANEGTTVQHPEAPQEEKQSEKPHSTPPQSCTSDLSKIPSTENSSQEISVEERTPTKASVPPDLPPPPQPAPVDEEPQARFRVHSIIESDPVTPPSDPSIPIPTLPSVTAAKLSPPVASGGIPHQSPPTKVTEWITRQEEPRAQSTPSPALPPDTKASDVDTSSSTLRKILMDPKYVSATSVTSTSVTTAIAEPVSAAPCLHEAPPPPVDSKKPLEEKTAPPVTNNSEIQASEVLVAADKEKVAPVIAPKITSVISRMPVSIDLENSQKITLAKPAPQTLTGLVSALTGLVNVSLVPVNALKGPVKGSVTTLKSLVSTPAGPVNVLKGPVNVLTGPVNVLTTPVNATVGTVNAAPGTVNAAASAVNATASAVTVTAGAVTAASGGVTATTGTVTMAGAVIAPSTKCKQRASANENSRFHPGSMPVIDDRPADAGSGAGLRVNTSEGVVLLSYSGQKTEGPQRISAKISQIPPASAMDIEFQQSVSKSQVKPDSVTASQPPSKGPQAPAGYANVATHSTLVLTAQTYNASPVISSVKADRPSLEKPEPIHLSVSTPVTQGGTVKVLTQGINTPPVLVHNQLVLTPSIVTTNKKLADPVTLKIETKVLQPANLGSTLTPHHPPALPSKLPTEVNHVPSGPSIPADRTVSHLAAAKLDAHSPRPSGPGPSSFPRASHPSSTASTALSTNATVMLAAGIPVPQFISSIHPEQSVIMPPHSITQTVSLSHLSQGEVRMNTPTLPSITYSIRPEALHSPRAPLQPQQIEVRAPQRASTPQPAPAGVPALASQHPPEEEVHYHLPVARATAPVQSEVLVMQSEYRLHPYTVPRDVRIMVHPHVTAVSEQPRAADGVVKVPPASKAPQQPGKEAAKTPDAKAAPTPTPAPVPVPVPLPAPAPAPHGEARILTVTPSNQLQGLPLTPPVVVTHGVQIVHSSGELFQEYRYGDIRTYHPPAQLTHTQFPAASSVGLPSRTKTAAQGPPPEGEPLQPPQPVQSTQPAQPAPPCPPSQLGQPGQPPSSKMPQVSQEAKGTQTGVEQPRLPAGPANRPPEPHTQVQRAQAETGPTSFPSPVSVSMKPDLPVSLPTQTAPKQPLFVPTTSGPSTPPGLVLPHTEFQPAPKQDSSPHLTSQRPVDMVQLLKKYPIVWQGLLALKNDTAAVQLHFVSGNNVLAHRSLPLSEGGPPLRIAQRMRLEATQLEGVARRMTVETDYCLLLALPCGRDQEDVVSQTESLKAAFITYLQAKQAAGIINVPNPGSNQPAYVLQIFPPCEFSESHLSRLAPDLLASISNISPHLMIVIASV
UniProt O43752: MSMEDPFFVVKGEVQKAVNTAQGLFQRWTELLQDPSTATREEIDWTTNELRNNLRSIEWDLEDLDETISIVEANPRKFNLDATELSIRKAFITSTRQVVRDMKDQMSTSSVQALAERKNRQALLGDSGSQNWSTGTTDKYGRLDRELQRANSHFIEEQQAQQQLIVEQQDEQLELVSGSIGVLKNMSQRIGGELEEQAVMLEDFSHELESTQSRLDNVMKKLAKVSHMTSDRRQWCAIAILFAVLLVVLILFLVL
UniProt O95295: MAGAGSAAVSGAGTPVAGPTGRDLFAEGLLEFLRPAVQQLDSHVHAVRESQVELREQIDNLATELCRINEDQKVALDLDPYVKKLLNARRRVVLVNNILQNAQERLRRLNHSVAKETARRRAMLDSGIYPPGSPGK
UniProt Q8TAQ2, whole entry: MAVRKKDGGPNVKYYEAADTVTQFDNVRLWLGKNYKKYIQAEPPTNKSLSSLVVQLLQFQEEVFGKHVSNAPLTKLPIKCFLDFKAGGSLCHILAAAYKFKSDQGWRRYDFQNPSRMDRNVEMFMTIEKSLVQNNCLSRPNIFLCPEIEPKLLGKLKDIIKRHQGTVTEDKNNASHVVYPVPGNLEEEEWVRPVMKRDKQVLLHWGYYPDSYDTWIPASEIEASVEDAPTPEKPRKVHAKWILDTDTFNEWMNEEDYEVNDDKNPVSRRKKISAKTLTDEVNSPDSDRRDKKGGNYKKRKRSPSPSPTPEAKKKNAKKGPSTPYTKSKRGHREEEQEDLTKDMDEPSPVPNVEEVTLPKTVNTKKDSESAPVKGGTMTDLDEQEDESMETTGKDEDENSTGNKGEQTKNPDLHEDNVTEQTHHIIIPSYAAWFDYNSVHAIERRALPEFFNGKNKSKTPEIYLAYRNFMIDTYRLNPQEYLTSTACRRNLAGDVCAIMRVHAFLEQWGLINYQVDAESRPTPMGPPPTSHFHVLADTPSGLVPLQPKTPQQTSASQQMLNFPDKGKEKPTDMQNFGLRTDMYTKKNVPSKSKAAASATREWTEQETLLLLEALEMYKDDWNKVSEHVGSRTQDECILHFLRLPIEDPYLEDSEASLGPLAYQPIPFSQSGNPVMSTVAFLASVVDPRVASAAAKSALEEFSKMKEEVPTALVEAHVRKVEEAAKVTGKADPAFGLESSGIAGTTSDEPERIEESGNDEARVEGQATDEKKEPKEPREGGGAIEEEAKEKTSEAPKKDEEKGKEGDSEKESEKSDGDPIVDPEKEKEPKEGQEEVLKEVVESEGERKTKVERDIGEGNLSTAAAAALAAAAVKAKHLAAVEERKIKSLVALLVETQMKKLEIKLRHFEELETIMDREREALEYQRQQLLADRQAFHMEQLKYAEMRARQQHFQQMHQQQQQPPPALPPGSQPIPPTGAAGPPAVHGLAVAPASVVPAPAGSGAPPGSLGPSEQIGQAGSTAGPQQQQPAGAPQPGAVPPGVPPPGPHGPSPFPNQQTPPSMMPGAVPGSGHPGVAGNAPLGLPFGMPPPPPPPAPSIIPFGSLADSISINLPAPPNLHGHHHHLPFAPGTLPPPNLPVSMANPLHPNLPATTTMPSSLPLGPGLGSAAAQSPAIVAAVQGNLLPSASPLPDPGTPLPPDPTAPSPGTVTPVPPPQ

compound: Nc1nc2c(ncn2[C@@H]2O[C@H](COP(=O)(O)OP(=O)(O)OP(=O)(O)O)[C@@H](O)[C@H]2O)c(=O)[nH]1; assay: dose-dependent thermal stabilisation call (2D-TPP, DLPTP, 10% FDR) (binary (1 = stabilised)); higher = stabilised by the compound; settings: system: Jurkat gel-filtered lysate; concentration range 1-500 µM
Protocol: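 2D thermal proteome profiling in gel-filtered Jurkat E6.1 lysate (2 mg/ml) treated with NaGTP (0, 1, 10, 100, 500 uM) for 10 min at room temperature, then heated 3 min at one of 12 temperatures (42-63.9 C). Soluble protein was quantified by TMT10 MS. The value is the DLPTP call of the paper: dose-dependent thermal stabilisation over all temperatures at 10% FDR (F-test of a dose-response against a flat model); one experiment, one call per tested protein.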

dose-dependent thermal stabilisation call, active:
SNRNP70 (UniProt P08621) 1, SMC5 (UniProt Q8IY18) 1, SUCLG2 (UniProt Q96I99) 1, SON (UniProt P18583) 1, SLBP (UniProt Q14493) 1, STXBP3 (UniProt O00186) 1, SPG21 (UniProt Q9NZD8) 1, SRP54 (UniProt P61011) 1

dose-dependent thermal stabilisation call, inactive:
SMC3 (UniProt Q9UQE7) 0, SRC (UniProt P12931) 0, SHMT1 (UniProt P34896) 0, SMG9 (UniProt Q9H0W8) 0, STAMBPL1 (UniProt Q96FJ0) 0, SNX1 (UniProt Q13596) 0, SSRP1 (UniProt Q08945) 0, SMAP1 (UniProt Q8IYB5) 0, STK26 (UniProt Q9P289) 0, SIRT5 (UniProt Q9NXA8) 0, SLU7 (UniProt O95391) 0, STX12 (UniProt Q86Y82) 0, STARD7 (UniProt Q9NQZ5) 0, STK38 (UniProt Q15208) 0, SP2 (UniProt Q02086) 0, TAB2 (UniProt Q9NYJ8) 0, STX17 (UniProt P56962) 0, STX4 (UniProt Q12846) 0, SP4 (UniProt Q02446) 0, SNRPC (UniProt P09234) 0, SMARCA5 (UniProt O60264) 0, SLC7A5 (UniProt Q01650) 0, SMU1 (UniProt Q2TAY7) 0, SNRPGP15 (UniProt A8MWD9) 0, STK38L (UniProt Q9Y2H1) 0, STRADA (UniProt Q7RTN6) 0, SNRK (UniProt Q9NRH2) 0, SPEN (UniProt Q96T58) 0, STX6 (UniProt O43752) 0, SNAPIN (UniProt O95295) 0, SHC1 (UniProt P29353) 0, SMARCC2 (UniProt Q8TAQ2) 0
